The other results are listed elsewhere or left out. These are further read-outs of the screen, such as a control signal, another cell line or another target. No call is given for them. Compounds called inactive in the main read-out are mostly missing here. Words in brackets tell the shape of the fitted curve; partial curves, single points and poor fits give uncertain potencies.
Test: qHTS Assay for Modulators of Lamin A Splicing
Settings: HeLa LMNA splicing GFP/RFP minigene ratio, 48 h
Summary of the method: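 S3 HeLa stable clones carrying a lamin A-EGFP splicing minigene plus DsRed2 were seeded at 600 cells/well in Opti-MEM with 2% FBS, pin-dosed and incubated 48 h at 37°C. Acumen cytometry (488 nm) gave the GFP/RFP total-intensity ratio.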

[1] = measured here: GFP splicing reporter channel
[2] = measured here: RFP viability control channel

SMILES | AC50 [1] | AC50 [2]
CCOC(=O)C1CCCN(CC(=O)Nc2cccc(C(C)=O)c2)C1 (stereo not drawn) | 0.00708 µM [falling, full curve, poor fit] | 0.00501 µM [falling, full curve, poor fit]
Cn1nc([N+](=O)[O-])nc1Oc1ccc(C(C)(C)C)cc1 |  | 35.5 µM [rising, single point]
COc1cc(CNc2nnnn2C)ccc1OCc1ccc(F)cc1Cl |  | 12.6 µM [falling, single point]
COc1ccccc1/C=C(/C(=O)OCC(=O)Nc1ccc(N(C)C)cc1)c1ccccc1 | 10 µM [rising, partial curve, poor fit] | 10 µM [rising, partial curve, poor fit]
O=C(O)Cn1nc(C(F)(F)F)c2c1CCCC2 |  | 0.0251 µM [falling, full curve, poor fit]
CCCn1c(N)c(C(=O)CSc2nc3ccccc3s2)c(=O)[nH]c1=O |  | 7.08 µM [rising, full curve, poor fit]
CN(CC(=O)Nc1ccc(S(=O)(=O)N2CCCC2)cc1)Cc1ccc(Cl)c(Cl)c1 |  | 15.8 µM [rising, single point]
c1ccc(CCCNc2ncnc3nc[nH]c23)cc1 |  | 31.6 µM [rising, single point]
O=C(CSc1ncc(-c2ccc(F)cc2)n1Cc1ccco1)Nc1ccc2c(c1)OCO2 | 11.2 µM [rising, partial curve] | 12.6 µM [rising, partial curve]
N#Cc1c(NC(=O)CSc2ncn[nH]2)sc2c1CCCCC2 |  | 22.4 µM [rising, single point]
CCCN(CC1CC1)C(=O)CSc1ncnc2sc(C)c(C)c12 |  | 8.91 µM [rising, partial curve]
Cc1cc(=O)n(Cc2cccc(Cl)c2)c2c1c(C)nn2-c1ccccc1 | 0.00316 µM [falling, full curve, poor fit] | 0.00355 µM [falling, full curve, poor fit]
CCN(CC)C(=O)c1sc2c(c1C)c(=O)n(-c1ccccc1)c(=O)n2CC(=O)Nc1ccc(C)cc1C | 0.00447 µM [rising, full curve, poor fit] | 
CCCCOC(=O)c1c(C)oc2ccc(NS(=O)(=O)c3ccc4c5c(cccc35)C(=O)N4)cc12 | 11.2 µM [rising, single point] | 12.6 µM [rising, single point]
CCc1nnc(NC(=O)c2cccc(S(=O)(=O)N3CCc4ccccc43)c2)s1 | 10 µM [rising, partial curve, poor fit] | 
CCOc1ccc(CC(=O)NCCc2sc3nc(-c4ccc(OC)cc4)nn3c2C)cc1 | 0.0631 µM [rising, full curve] | 
Cc1ccc(N(CC(=O)NC(C)(C)C)C(=O)CS(=O)CC(=O)Nc2ccc(F)cc2)cc1 (stereo not drawn) | 1.26 µM [falling, partial curve] | 1.58 µM [falling, partial curve]
CCC1(CC)NC(=O)N(Cc2nc3ccccc3s2)C1=O | 0.0224 µM [rising, full curve, poor fit] | 3.98 µM [rising, single point]
CC(C)=N/N=c1\scc(C)n1Cc1ccco1 | 3.98 µM [falling, full curve, poor fit] | 

SMILES | AC50 [1] | AC50 [2]
CCCn1nc([N+](=O)[O-])c(C(C#N)c2nc3ccccc3o2)c(Cl)c1=O (stereo not drawn) |  | 12.6 µM [rising, partial curve]
COc1cccc(C(=O)NC2CCN(CC(=O)Nc3c(C)cc(C)cc3C)CC2)c1 |  | 10 µM [falling, partial curve, poor fit]
COc1cc2c(O)c3c(c(-c4ccc5c(c4)OCO5)c2cc1OC)C(=O)OC3 | 6.31 µM [falling, partial curve] | 8.91 µM [falling, partial curve]
CCCC(=O)NC(c1ccc2c(c1)OCO2)c1cc(Cl)c2cccnc2c1O (stereo not drawn) |  | 2.82 µM [rising, full curve]
CCCCN(C)S(=O)(=O)c1cc(-c2nnc3c4ccccc4c(C)nn23)ccc1C | 0.01 µM [rising, full curve, poor fit] | 
COc1ccc(CCN(C)C(=O)/C=C/c2c(Cl)nc3ccccn23)cc1OC |  | 0.002 µM [falling, full curve]
COc1cc(NC(=O)CSc2nccc(C)n2)c(C)cc1[N+](=O)[O-] |  | 5.01 µM [rising, full curve, poor fit]
CC1CC(C)CN(c2nc(NCc3ccco3)nc(N)c2[N+](=O)[O-])C1 (stereo not drawn) | 0.631 µM [rising, single point] | 25.1 µM [rising, partial curve]
C=CCOc1ccc2c(c1)c(S(=O)(=O)c1ccc(C)cc1)cn2COC | 17.8 µM [rising, single point] | 35.5 µM [rising, single point]
O=c1c2ccccc2nnn1CSc1nnc(-c2cccs2)n1Cc1ccccc1 |  | 22.4 µM [rising, single point]
Cc1oc(-c2cccc(Br)c2)nc1CN1CCC(C(=O)NCCc2ccc(Cl)cc2)CC1 | 0.398 µM [falling, partial curve] | 0.126 µM [falling, full curve, poor fit]
O=S1(=O)CCN(Cc2cccc(C(F)(F)F)c2)CC1 |  | 3.16 µM [falling, full curve]
CC(C)CC1NC(=S)N(C2CCCCC2)C1=O (stereo not drawn) | 4.47 µM [rising, partial curve] | 
COc1cnc(-c2ccccn2)nc1Sc1ccc(Cl)cc1 | 35.5 µM [falling, single point] | 35.5 µM [falling, single point]
COc1ccccc1NC(=O)N1CCCC1C(=O)Nc1ccc2c(c1)OCCO2 (stereo not drawn) | 25.1 µM [rising, partial curve, poor fit] | 12.6 µM [rising, partial curve, poor fit]
COC(=O)C1=C(N)OC2=C(C(=O)CC(C)(C)C2)C1c1ccccc1OC (stereo not drawn) | 0.0251 µM [falling, full curve, poor fit] | 1.12 µM [falling, partial curve]
OC(CNCCc1ccc(Cl)cc1)COCc1ccco1 (stereo not drawn) |  | 20 µM [rising, single point]
Cc1cc(NCCC(C)C)n2nc(C)c(-c3ccccc3)c2n1 |  | 22.4 µM [rising, single point]
COc1cccc(OCc2cc(/C=N/NC(=O)c3ccn[nH]3)ccc2OC)c1 | 28.2 µM [falling, single point] | 35.5 µM [falling, single point]

Entries from the list above with a nitro group on carbon, in the order listed:
SMILES | AC50 [1] | AC50 [2]
Cn1nc([N+](=O)[O-])nc1Oc1ccc(C(C)(C)C)cc1 |  | 35.5 µM [rising, single point]
CCCn1nc([N+](=O)[O-])c(C(C#N)c2nc3ccccc3o2)c(Cl)c1=O (stereo not drawn) |  | 12.6 µM [rising, partial curve]
COc1cc(NC(=O)CSc2nccc(C)n2)c(C)cc1[N+](=O)[O-] |  | 5.01 µM [rising, full curve, poor fit]
CC1CC(C)CN(c2nc(NCc3ccco3)nc(N)c2[N+](=O)[O-])C1 (stereo not drawn) | 0.631 µM [rising, single point] | 25.1 µM [rising, partial curve]

Next part

SMILES | AC50 [1] | AC50 [2]
CC(C)[C@H](N)C(=O)OCCOCn1cnc2c(=O)[nH]c(N)nc21 | 6.31 µM [rising, single point] | 
N/C(=N\OC(=O)N1CCOCC1)c1ccccc1 |  | 35.5 µM [falling, partial curve]
COc1ccc(Br)cc1/C=N/n1c(C)nnc1C |  | 14.1 µM [rising, partial curve]
COc1cccc(OC)c1Nc1nc(C)nc2c1nnn2Cc1ccccc1Cl |  | 17.8 µM [falling, partial curve]
O=S(=O)(c1ccccc1)C(/C=N\O)/C=C/c1ccccc1 (stereo not drawn) | 28.2 µM [falling, partial curve] | 0.631 µM [falling, full curve, poor fit]
Cc1nnc(SCC(=O)c2ccc(Cl)cc2)s1 |  | 7.94 µM [rising, partial curve]
CN(C)C(=N)N=C(N)N | 0.00631 µM [falling, full curve, poor fit] | 0.00355 µM [falling, full curve, poor fit]
COc1ccc(C(=O)O/N=C(\N)Cc2ccc(Cl)cc2)cc1OC | 22.4 µM [falling, single point] | 25.1 µM [falling, partial curve]
COc1cc(/C=C/C(=O)Nc2ccc(C(C)=O)cc2)cc(OC)c1OC | 3.55 µM [falling, partial curve] | 
Cc1cccc(C(=O)Nc2nnc(-c3ccncc3)o2)c1 | 0.0398 µM [falling, full curve, poor fit] | 0.112 µM [falling, full curve, poor fit]
O=C(CO/N=C1\CCCc2nonc21)Nc1ccc(Br)cc1 |  | 7.08 µM [rising, partial curve]
O=C1CC(/C=C/c2ccccn2)=Nc2ccccc2N1 |  | 35.5 µM [rising, single point]
O=C(CSc1cccc[n+]1[O-])c1ccccc1Br | 1.78 µM [falling, full curve, poor fit] | 0.891 µM [falling, full curve, poor fit]
O=C(Cn1ccn(-c2ccc(F)cc2)c(=O)c1=O)NCCc1ccccc1 | 28.2 µM [falling, partial curve, poor fit] | 
CC(=O)Nc1nc(-c2ccccc2)c(-c2ccccc2)o1 |  | 35.5 µM [rising, single point]
CN(C)c1ccc(C(CNC(=O)c2ccc(F)cc2)c2c[nH]c3ccccc23)cc1 (stereo not drawn) | 7.08 µM [rising, partial curve, poor fit] | 20 µM [rising, single point]
O=C(COc1ccc2c(-c3ccccc3)cc(=O)oc2c1)NCc1cccs1 |  | 0.0891 µM [falling, full curve, poor fit]
Cc1cc(C)c(C)c(OCCOCCNCc2ccccc2)c1 | 10 µM [rising, partial curve] | 12.6 µM [rising, partial curve]

— PubChem BioAssay AID1487 (National Center for Advancing Translational Sciences (NCATS), 2009)
